PMC4685450, “Crystal Structure of Human SSRP1 Middle Domain Reveals a Role in DNA Binding”
For at least one entry, the source does not settle the construct or the ends of the probe. For part of these data: The comparison behind a weaker result is the experiment's own reference, which may not be listed here. At least one verdict rests on a figure or table, not on a statement of the authors.

Chains of the proteins cited; added tags and fusions are not shown. Residues count along the entry.
UniProt Q08945, 196-430 R241A/K319A/K325A/R357A: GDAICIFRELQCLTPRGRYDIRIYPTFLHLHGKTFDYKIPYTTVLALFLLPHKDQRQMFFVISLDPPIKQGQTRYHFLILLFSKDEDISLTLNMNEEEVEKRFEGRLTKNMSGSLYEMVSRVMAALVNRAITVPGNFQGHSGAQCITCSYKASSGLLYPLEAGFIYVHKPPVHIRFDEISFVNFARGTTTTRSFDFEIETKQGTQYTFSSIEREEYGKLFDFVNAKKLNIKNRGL
UniProt Q08945, 196-430 R211A/R213A: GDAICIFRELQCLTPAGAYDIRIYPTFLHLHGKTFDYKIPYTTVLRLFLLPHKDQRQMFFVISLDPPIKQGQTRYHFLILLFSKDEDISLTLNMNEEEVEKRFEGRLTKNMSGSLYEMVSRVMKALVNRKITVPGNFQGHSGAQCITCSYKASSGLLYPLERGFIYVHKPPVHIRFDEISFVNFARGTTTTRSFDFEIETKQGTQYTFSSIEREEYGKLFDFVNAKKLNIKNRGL
UniProt Q08945, 196-430 R211A/R213A/K346A/K364A: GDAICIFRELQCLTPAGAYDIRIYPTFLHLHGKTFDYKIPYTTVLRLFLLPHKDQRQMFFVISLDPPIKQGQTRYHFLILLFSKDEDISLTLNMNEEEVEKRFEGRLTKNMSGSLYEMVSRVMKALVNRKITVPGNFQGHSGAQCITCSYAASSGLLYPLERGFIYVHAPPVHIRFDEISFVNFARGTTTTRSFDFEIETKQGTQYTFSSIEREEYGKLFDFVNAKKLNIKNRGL
UniProt Q08945, 196-430 K319A/K325A: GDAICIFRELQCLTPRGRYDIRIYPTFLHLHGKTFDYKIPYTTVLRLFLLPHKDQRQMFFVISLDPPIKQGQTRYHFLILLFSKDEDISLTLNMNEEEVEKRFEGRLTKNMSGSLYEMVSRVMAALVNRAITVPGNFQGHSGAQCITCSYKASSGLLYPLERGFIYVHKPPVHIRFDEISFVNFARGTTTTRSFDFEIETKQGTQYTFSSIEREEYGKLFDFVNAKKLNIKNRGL
UniProt Q08945, 196-430 K346A/K364A: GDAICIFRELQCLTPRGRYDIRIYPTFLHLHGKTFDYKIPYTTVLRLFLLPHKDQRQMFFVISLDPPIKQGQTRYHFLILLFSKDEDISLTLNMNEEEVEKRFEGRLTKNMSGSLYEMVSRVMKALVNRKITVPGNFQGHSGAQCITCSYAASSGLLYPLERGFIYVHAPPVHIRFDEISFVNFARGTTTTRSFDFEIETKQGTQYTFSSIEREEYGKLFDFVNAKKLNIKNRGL
UniProt Q08945, 196-430 R241A/R357A: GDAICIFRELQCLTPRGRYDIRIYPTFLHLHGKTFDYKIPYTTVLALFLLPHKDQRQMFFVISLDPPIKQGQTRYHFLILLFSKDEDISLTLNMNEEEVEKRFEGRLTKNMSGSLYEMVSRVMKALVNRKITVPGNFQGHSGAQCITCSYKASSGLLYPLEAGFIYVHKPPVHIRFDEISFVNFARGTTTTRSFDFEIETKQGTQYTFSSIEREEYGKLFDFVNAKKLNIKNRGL

What was measured:
[1] = biological target: SSRP1-M R241A/R357A/K319A/K325A (Homo sapiens) (UniProt Q08945); test: EMSA (native PAGE); conditions: more gel shifting than WT; EMSA buffer; proteins purified in 20 mM Tris-HCl, 200 mM NaCl, pH 7.0; recombinant protein; residues 196-430; protein details: N-terminal 6xHis
[2] = biological target: SSRP1-M R211A/R213A (Homo sapiens) (UniProt Q08945); test: EMSA (native PAGE); conditions: more free DNA than WT, in agarose EMSA free DNA similar to WT; EMSA buffer; proteins purified in 20 mM Tris-HCl, 200 mM NaCl, pH 7.0; recombinant protein; residues 196-430; protein details: N-terminal 6xHis
[3] = biological target: SSRP1-M R211A/R213A/K364A/K346A (Homo sapiens) (UniProt Q08945); test: EMSA (native PAGE); conditions: EMSA buffer; proteins purified in 20 mM Tris-HCl, 200 mM NaCl, pH 7.0; recombinant protein; residues 196-430; protein details: N-terminal 6xHis
[4] = biological target: SSRP1-M K319A/K325A (Homo sapiens) (UniProt Q08945); test: EMSA (agarose and native PAGE); conditions: less oligomerized, more shifted complex than WT; EMSA buffer; proteins purified in 20 mM Tris-HCl, 200 mM NaCl, pH 7.0; recombinant protein; residues 196-430; protein details: N-terminal 6xHis
[5] = biological target: SSRP1-M K364A/K346A (Homo sapiens) (UniProt Q08945); test: EMSA (agarose and native PAGE); conditions: more free DNA than WT; EMSA buffer; proteins purified in 20 mM Tris-HCl, 200 mM NaCl, pH 7.0; recombinant protein; residues 196-430; protein details: N-terminal 6xHis
[6] = biological target: SSRP1-M R241A/R357A (Homo sapiens) (UniProt Q08945); test: EMSA (agarose and native PAGE); conditions: less oligomerized, much more shifted complex than WT; EMSA buffer; proteins purified in 20 mM Tris-HCl, 200 mM NaCl, pH 7.0; recombinant protein; residues 196-430; protein details: N-terminal 6xHis

“TCCAGTGCCGGTGTCGCTTGGGTCCCGAGG (double strand) [30-bp linker dsDNA]”: binds [1]; binds more weakly [2]; binds more weakly [3]. “TCCAGTGCCGGTGTCGCTTGGGTCCCGAGG (double strand) [30-bp linker dsDNA]”: binds [4]; binds more weakly [5]; binds [6].
